# Assay results: PubChem BioAssay AID588590 (National Center for Advancing Translational Sciences (NCATS), 2011)
# Sequences of proteins named here, by UniProt entry; tags and fusion partners are left off. A change or cut given only in a name is not applied to a line headed by its entry.
# UniProt Q9UNA4: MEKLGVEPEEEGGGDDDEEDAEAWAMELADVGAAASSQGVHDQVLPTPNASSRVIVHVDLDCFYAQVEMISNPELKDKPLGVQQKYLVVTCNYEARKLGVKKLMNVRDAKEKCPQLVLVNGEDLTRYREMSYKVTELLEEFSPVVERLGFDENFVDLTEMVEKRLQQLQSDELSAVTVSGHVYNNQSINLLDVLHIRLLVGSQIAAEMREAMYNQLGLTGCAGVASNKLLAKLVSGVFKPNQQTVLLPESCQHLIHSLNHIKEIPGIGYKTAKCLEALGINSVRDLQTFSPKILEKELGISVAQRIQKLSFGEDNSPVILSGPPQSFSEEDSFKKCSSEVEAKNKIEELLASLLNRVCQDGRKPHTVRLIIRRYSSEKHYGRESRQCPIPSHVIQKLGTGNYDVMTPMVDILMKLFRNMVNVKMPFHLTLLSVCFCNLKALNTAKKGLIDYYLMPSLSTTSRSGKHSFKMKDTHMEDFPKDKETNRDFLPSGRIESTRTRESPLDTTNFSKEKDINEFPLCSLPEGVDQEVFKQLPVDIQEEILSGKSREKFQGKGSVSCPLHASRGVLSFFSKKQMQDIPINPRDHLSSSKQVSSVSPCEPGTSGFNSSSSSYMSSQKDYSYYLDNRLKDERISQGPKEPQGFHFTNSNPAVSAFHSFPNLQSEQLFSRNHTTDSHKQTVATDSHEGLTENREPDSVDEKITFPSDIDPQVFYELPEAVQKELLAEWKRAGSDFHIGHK
# Among all 390,000 compounds or so, about 4,000 (1%) were called active. Inconclusive results, whose numbers are uncertain, are shown with a selection of clear calls. The call rests on the fitted dose curve; in most records, active means well fitted inhibition curve with a large enough effect; inconclusive means small, poorly fitted or top-dose-only effect, or another doubt; inactive means no such curve, though single readings can be large or run the other way. Potencies of inconclusive entries are doubtful fits and often do not repeat.
# Molecular target: DNA polymerase iota (Homo sapiens) (UniProt Q9UNA4)
# Test: qHTS for Inhibitors of Polymerase Iota
# Conditions: Pol iota fluorescent replication assay, 10 min; series mostly up to 115 µM
# Procedure, shortened: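 Pol iota at 10 nM preincubated 15 min with compounds at room temperature; reaction started with fluorescent substrate, 50 nM final. Fluorescence read kinetically at 0 and 10 min; buffer-only wells as negative control.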
# Potency means the concentration at half of the fitted maximal effect.
row,SMILES,Potency
1,C[C@@H]1C=C[C@](Cc2ccccc2)(C(=O)O)N1C(=O)c1ccccc1,"inconclusive: 50.1 µM [inhibitor, partial curve, poor fit]"
2,CC(C)Oc1ccc(CSc2nnc3n(C)c(=O)c4c5c(sc4n23)CCCC5)cc1,"inconclusive: 0.631 µM [inhibitor, full curve, poor fit]"
3,O=C(OCc1cc(=O)n2nc(-c3cccs3)sc2n1)c1ccc(F)cc1,"inconclusive: 89.1 µM [inhibitor, single point]"
4,Cc1ccc(N2C(=O)CS(=O)C(c3ccccc3)C2=O)cc1C (stereo not given),"inconclusive: 28.2 µM [inhibitor, partial curve, poor fit]"
5,COCc1nnc(NC(=O)C(C)C)s1,"inconclusive: 28.2 µM [inhibitor, single point]"
6,COc1ccccc1N(C)S(=O)(=O)c1ccc(Cl)c(C(=O)NC2=NCCS2)c1,"inconclusive: 50.1 µM [inhibitor, partial curve, poor fit]"
7,CCOC(=O)N1CCN(c2ccc(S(=O)(=O)N3CCOCC3)cn2)CC1,"inconclusive: 89.1 µM [inhibitor, partial curve, poor fit]"
8,CCCCn1c(CN2C(=O)c3ccccc3C2=O)nc2ccccc2c1=O,"inconclusive: 2.24 µM [inhibitor, full curve, poor fit]"
9,CC1=C(C(=O)OCc2ccccc2)C(c2ccc(C(F)(F)F)cc2)NC(=O)N1CCCCCC(=O)O (stereo not given),"inconclusive: 22.4 µM [inhibitor, single point]"
10,Cc1[nH]n(-c2ccccc2)c(=O)c1/C=N/NC(=O)c1cccc([N+](=O)[O-])c1,inactive
11,CC(=O)Nc1ccc(S(=O)(=O)N2CCN(CC3CC4C=CC3C4)CC2)cc1 (stereo not given),"inconclusive: 28.2 µM [inhibitor, partial curve, poor fit]"
12,COCc1cc(=O)[nH]c(Nc2nc(C)c3ccccc3n2)n1,inactive
13,CCOc1ccc2c(c1)[nH]c(=S)n2C,"inconclusive: 2.24 µM [inhibitor, partial curve, poor fit]"
14,Fc1ccc(C2CC(c3cccs3)=NN2C(=S)Nc2ccccc2)cc1 (stereo not given),"inconclusive: 100 µM [inhibitor, partial curve, poor fit]"
15,CC(C)(C)c1ccc(OCCC(=O)OCC(=O)N2c3ccccc3NC(=O)C2(C)C)cc1,"inconclusive: 79.4 µM [inhibitor, partial curve, poor fit]"
16,CSc1nc(N(C)NC(=O)c2ccc(F)cc2)c2ccccc2n1,inactive
17,O=C(Cc1nn[nH]n1)Nc1cc(Cl)cc(Cl)c1,"inconclusive: 8.91 µM [inhibitor, single point]"
18,Cc1oc(-c2ccccc2Cl)[n+]([O-])c1C,"inconclusive: 25.1 µM [inhibitor, full curve, poor fit]"
19,CCC1(O)CC(C(=O)OC)=NN1C(=O)c1ccccc1 (stereo not given),"inconclusive: 79.4 µM [inhibitor, single point]"
20,O=C(CSc1nc(-c2cccs2)nc2cc(=O)[nH]n12)Nc1ccccc1Cl,"inconclusive: 89.1 µM [inhibitor, single point]"

row,SMILES,Potency
1,COc1cccc(-c2nc(=S)c3c(n2Cc2ccco2)CCCC3)c1,"inconclusive: 11.2 µM [inhibitor, full curve, poor fit]"
2,COc1cc(OC)c(Nc2c3c(nc4nc(-c5cccs5)nn24)CCCC3)cc1Cl,"inconclusive: 89.1 µM [inhibitor, single point]"
3,CCN(c1ccccc1)S(=O)(=O)c1nnc(NC(=O)c2ccco2)s1,"inconclusive: 0.708 µM [inhibitor, full curve, poor fit]"
4,Cc1ccccc1-c1nnc(SCC(=O)N2CCCCC2)o1,"inconclusive: 100 µM [inhibitor, single point]"
5,O=C(Nc1cc(Cl)cc(Cl)c1)c1ccc(F)c(S(=O)(=O)NCc2ccccc2Cl)c1,"inconclusive: 89.1 µM [inhibitor, single point]"
6,Cc1cc(C)c2oc(-c3ccc(C)c(NC(=S)NC(=O)c4cccs4)c3)nc2c1,inactive
7,C/C=C/c1ccc(OCCCNC2CCCC2)c(OC)c1,"inconclusive: 39.8 µM [inhibitor, single point]"
8,Cc1ccc(C(=O)CCNc2cccc(Br)c2)o1,"inconclusive: 8.91 µM [inhibitor, partial curve, poor fit]"
9,COc1ccc(CCNC(=O)CCCn2nc(C)c3sc4ccccc4c3c2=O)cc1OC,inactive
10,O=c1c2cc(N3CCOCC3)ccc2[nH]c(=S)n1Cc1ccc(Cl)cc1,inactive
11,O=C(O)CCCN1C(=O)/C(=C/c2ccc(-c3nc4ccccc4s3)o2)SC1=S,"inconclusive: 14.1 µM [inhibitor, single point]"
12,Cc1cccc(N2CCN(S(=O)(=O)c3ccc(S(=O)(=O)N4CCCC4)cc3)CC2)c1C,"inconclusive: 39.8 µM [inhibitor, single point]"
13,COc1ccccc1OCC(O)CN1CCN(CC(=O)Nc2c(C)cccc2C)CC1 (stereo not given),"inconclusive: 25.1 µM [inhibitor, full curve, poor fit]"
14,CN(C(=O)c1cccc(NC(=O)Cc2ccc([N+](=O)[O-])cc2)c1)C1CCCC1,"inconclusive: 70.8 µM [inhibitor, partial curve]"
15,O=C(C=Cc1ccco1)c1ccco1,"inconclusive: 25.1 µM [inhibitor, partial curve]"
16,Cc1cccc(/N=C/c2sc3ccccc3c2O)n1,"inconclusive: 20 µM [inhibitor, partial curve]"
17,O=C(N=Nc1c(O)[nH]c2ccccc12)c1ccc2c(c1)OCO2,"inconclusive: 6.31 µM [inhibitor, partial curve, poor fit]"
18,O=C(O)c1cc(Cl)c(Cl)cc1C(=O)N1CCCC1,"inconclusive: 79.4 µM [inhibitor, partial curve, poor fit]"
19,CCn1cc(C(=O)OCC(=O)Nc2ccc(S(=O)(=O)N3CCCC3)cc2)c(=O)c2ccc(C)nc21,"inconclusive: 39.8 µM [inhibitor, single point]"
20,C/C(CCc1ccccc1)=N/NC(=O)C(=O)NCc1ccccc1,"inconclusive: 56.2 µM [inhibitor, single point]"

# 3 structures out of the list, arranged by count of non-hydrogen atoms, high to low.
row,SMILES,Potency
12,Cc1cccc(N2CCN(S(=O)(=O)c3ccc(S(=O)(=O)N4CCCC4)cc3)CC2)c1C,"inconclusive: 39.8 µM [inhibitor, single point]"
10,O=c1c2cc(N3CCOCC3)ccc2[nH]c(=S)n1Cc1ccc(Cl)cc1,inactive
3,CCN(c1ccccc1)S(=O)(=O)c1nnc(NC(=O)c2ccco2)s1,"inconclusive: 0.708 µM [inhibitor, full curve, poor fit]"
